# At least one compound was matched to its structure with a doubt left.
# Tested on: novel object recognition
# Test: Novel object recognition (NOR) assay
# Type: in vivo
# Details: mice, dose approx. ID75 in MK-801 hyperactivity assay
# Protocol: Salts of the compounds were administered to mice at one hour post-training (a time-point at which animals normally behaviorally discriminate between novel and familiar objects) and two hours post-training (a time-point at which these animals normally no longer discriminate between objects). Doses were selected to correspond to the approximate ID75 value in the MK-801 hyperactivity assay.
smiles,measurement,setting,value
"Cc1cc2c(s1)Nc1ccccc1N=C2N1CCN(C)CC1 [Olanzapine, olanzapine, reference compound]",NOR - 60 minutes post training,,not retained
same,NOR - 120 minutes post training,,not retained
same,NOR - 120 minutes post training,listed as olanzapine,cognitive impairing effects
same,NOR - 60 minutes post training,listed as olanzepine,abolished novel object recognition

# From patent US20090239840A1, “AMINO SUBSTITUTED DIARYL[a,d]CYCLOHEPTENE ANALOGS AS [sequence] AGONISTS AND METHODS OF TREATMENT OF NEUROPSYCHIATRIC DISORDERS” (ACADIA PHARMACEUTICALS, INC., priority 2003, published 2009)
